Record: PubChem BioAssay AID743454 (Peter MacCallum Cancer Centre, 2014)
This is one part, drawn at random, of about 18,000 reagents tested. Over the whole deposit, 450 (2.5%) are marked active. 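Single biological run; no consistent viability z cut-off exists, so the class columns, not z-scores, define the calls.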

- Assay: 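Genes whose loss kills vorinostat-resistant colon cancer cells under vorinostat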 (primary screen)
- System: human HCT116-VR colon cancer cells, selected for vorinostat resistance
- Reagent: siRNA pool against human genes, 40 nM siRNA pool
- Timing: vorinostat for 24 h, read-out about 72 h after transfection
- Treatment: vorinostat at 2.5 µM final
- Measured: 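Two measures, CellTiter-Fluor viability and luminescent caspase 3/7 activity, each as fold change against same-plate mock wells, mean of duplicates, then screen-wide robust z-score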
- Scale: viability robust z-score: higher = more viable cells than screen typical; caspase robust z-score: higher = more caspase 3/7 activity than screen typical
- Hit rule: 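Hits are knock-downs in viability class RV1/RV2 or caspase class CA1/CA2, excluding ones that killed cells in the no-drug cell-count arm; hits then retested with single siRNAs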

With knock-down of BAG5, the record shows viability hit class no change; caspase hit class no change; viability robust z-score 0.02; caspase robust z-score -0.73; inactive. Against AHSA1, the entry reads viability hit class no change; caspase hit class no change; viability robust z-score -1.73; caspase robust z-score 0.55; inactive. Silencing of HAPLN4 came out at: viability hit class no change; caspase hit class no change; viability robust z-score -0.44; caspase robust z-score 3.48; inactive. Knock-down of CLUL1 resulted in: viability hit class no change; caspase hit class no change; viability robust z-score -0.01; caspase robust z-score -1.08; inactive. Against GOT2, the values are viability hit class no change; caspase hit class no change; viability robust z-score 0.68; caspase robust z-score -0.59; inactive. After knock-down of DRAXIN the results were viability hit class no change; caspase hit class no change; viability robust z-score 1.94; caspase robust z-score 0.01; inactive.

Knock-down of NRCAM resulted in: viability hit class no change; caspase hit class no change; viability robust z-score 1.77; caspase robust z-score -0.3; inactive. With knock-down of SGO1 the results were viability hit class no change; caspase hit class no change; viability robust z-score -1.1; caspase robust z-score 3.62; inactive.

In a second layout: 2 of the entries above
gene symbol,viability hit class,caspase hit class,viability robust z-score,caspase robust z-score,outcome
AHSA1,no change,no change,-1.73,0.55,inactive
HAPLN4,no change,no change,-0.44,3.48,inactive

Continued:
Silencing of ZC3H18-DT came out at: viability hit class no change; caspase hit class no change; viability robust z-score -0.13; caspase robust z-score 1.49; inactive. Depletion of BAIAP2L2 resulted in: viability hit class no change; caspase hit class no change; viability robust z-score 0.74; caspase robust z-score -0.18; inactive. ZNF556 gave viability hit class no change; caspase hit class no change; viability robust z-score 0.23; caspase robust z-score 1.77; inactive. For C1S, the values are viability hit class no change; caspase hit class no change; viability robust z-score 0.5; caspase robust z-score -0.92; inactive. CYTIP scored viability hit class no change; caspase hit class no change; viability robust z-score 0.67; caspase robust z-score 4.36; inactive. After knock-down of KIF24, the record shows viability hit class no change; caspase hit class no change; viability robust z-score 0.12; caspase robust z-score -0.94; inactive.

SYTL2 scored viability hit class no change; caspase hit class no change; viability robust z-score -1.71; caspase robust z-score 0.96; inactive. For AP4B1, the entry reads viability hit class no change; caspase hit class no change; viability robust z-score 1.22; caspase robust z-score -0.86; inactive. Against LAMP1 the deposit lists viability hit class no change; caspase hit class no change; viability robust z-score -1; caspase robust z-score 0.54; inactive. Knock-down of CYP3A5 resulted in: viability hit class no change; caspase hit class no change; viability robust z-score 1; caspase robust z-score 2.38; inactive. Against TBL2, the values are viability hit class no change; caspase hit class no change; viability robust z-score 0.34; caspase robust z-score -0.22; inactive. PPP4R3A showed viability hit class no change; caspase hit class no change; viability robust z-score 0.68; caspase robust z-score 0.2; inactive.

Knock-down of HIPK3 resulted in: viability hit class no change; caspase hit class no change; viability robust z-score -0.66; caspase robust z-score 1.95; inactive.
